Experimental data published in US20190265250A1 (CORNELL UNIVERSITY, published 2019).

T1: HA-Ube2N (human, UniProt P61088 1-152)
T1 construct: Co-expressed in HEK293T cells with the Halo-(FLAG)-Ube2V2 constructs; also called ubiquitin-conjugating enzyme E2N
T1 sequence: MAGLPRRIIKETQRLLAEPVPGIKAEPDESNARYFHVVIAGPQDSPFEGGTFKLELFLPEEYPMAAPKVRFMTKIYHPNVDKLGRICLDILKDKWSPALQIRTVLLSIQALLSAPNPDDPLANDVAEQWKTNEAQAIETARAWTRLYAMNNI

B1: wt-Halo-(FLAG)-Ube2V2 (human Halo-TEV-Flag-Ube2V2-wt) (other)
chain: AVSTGVKVPRNFRLLEELEEGQKGVGDGTVSWGLEDDEDMTLTRWTGMIIGPPRTNYENRIYSLKVECGPKYPEAPPSVRFVTKINMNGINNSSGMVDARSIPVLAKWQNSYSIKVVLQELRRLMMSKENMKLPQPPEGQTYNN
notes: Ectopically expressed in HEK293T cells and immunoprecipitated with anti-FLAG resin; also called Halo-Ube2V2; HaloTagged-wt-Ube2V2; not shown: N-terminal HaloTag (pFN21a vector); linker with TEV cleavage site and FLAG tag
B2: C69S-Halo-(FLAG)-Ube2V2 (Halo-TEV-Flag-Ube2V2-C69S) (other)
chain: AVSTGVKVPRNFRLLEELEEGQKGVGDGTVSWGLEDDEDMTLTRWTGMIIGPPRTNYENRIYSLKVESGPKYPEAPPSVRFVTKINMNGINNSSGMVDARSIPVLAKWQNSYSIKVVLQELRRLMMSKENMKLPQPPEGQTYNN
notes: Ectopically expressed in HEK293T cells and immunoprecipitated with anti-FLAG resin; also called C69S-mutant; C69S-hypomorph; not shown: N-terminal HaloTag (pFN21a vector); linker with TEV cleavage site and FLAG tag; only DNA primers are printed

Biological target: T1, HA-Ube2N
Assay: co-IP with anti-FLAG resin from HEK293T lysate, western blot (FIGS. 8A-8B)

Row | Binder | binding result
1 | B1 | binds
2 | B2 | binds
